Reference: PubChem BioAssay AID1259254 (NCATS, 2017)
Shown is an unselected part of about 59,000 reagents. Over the whole deposit, about 1,550 (2.6%) are marked active. 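G2 share is only a proxy for re-replication; each gene was hit by three separate siRNAs, and active genes were retested.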 Raw values vary from plate to plate and are shown uncorrected. Unmarked entries are inactive. The numbers tell different reagents against one gene apart. Reagent sequences are not shown. Not given: the amount of reagent.

- Purpose: 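Genome-wide screen for genes that prevent DNA re-replication in cancer cells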 (primary screen)
- Cell system: human HCT116 colorectal cancer cells
- Reagents: single siRNA against human genes
- Timing: 3 days
- Measurement: 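Nuclei stained with Hoechst and imaged; cell-cycle phase assigned by DNA content; G2 share scaled per plate, non-targeting siRNA 0%, GMNN siRNA 100%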
- Scale: G2 robust z-score and G2 cells, % of GMNN control: higher = more G2 cells, more excess DNA replication; raw share of cells in G2: higher = larger share of cells with G2 DNA content
- Hit rule: 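Active siRNAs have a G2 robust z of 5 or more median absolute deviations over the median, which in these data means about 38% or higher of GMNN control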

target	reagent	G2 robust z-score	G2 cells, % of GMNN control	raw share of cells in G2 (%)
BID	1	1.33	12.3	8.92
BID	2	1.12	10.9	8.94
BID	3	0.057	3.37	5.25
ARAP1	1	1.26	11.8	11.2
ARAP1	2	-0.101	2.26	5.33
ARAP1	3	-0.462	-0.287	4.84
SSUH2	1	-0.471	-0.347	3.72
SSUH2	2	0.00139	2.98	5.67
SSUH2	3	0.267	4.85	4.78
MYO1B	1	-0.461	-0.279	5.36
MYO1B	2	0.876	9.13	6.21
MYO1B	3	0.257	4.78	7.21
ACKR3	1	0.984	9.89	9.38
ACKR3	2	-0.346	0.535	4.7
ACKR3	3	0.0731	3.48	4.34
ART4	1	0.928	9.5	7.95
ART4	2	-0.598	-1.24	4.63
ART4	3	5.03 (active)	38.3	18.3
PLEKHG3	1	2.61	21.3	12.4
PLEKHG3	2	0.582	7.06	7
PLEKHG3	3	1.09	10.6	7.02

A portion of the results above, for reference:
target	reagent	G2 robust z-score	G2 cells, % of GMNN control	raw share of cells in G2 (%)
MYO1B	3	0.257	4.78	7.21
ACKR3	1	0.984	9.89	9.38
ACKR3	2	-0.346	0.535	4.7
ACKR3	3	0.0731	3.48	4.34

The results go on.
target	reagent	G2 robust z-score	G2 cells, % of GMNN control	raw share of cells in G2 (%)
SLC23A3	1	0.23	4.59	8.15
SLC23A3	2	0.389	5.71	6.79
SLC23A3	3	-0.501	-0.558	4.47
ATG16L1	1	-1.08	-4.66	2.77
ATG16L1	2	-0.941	-3.65	2.81
ATG16L1	3	1.44	13.1	12.2
ZNF853	1	-0.352	0.49	3.78
ZNF853	2	3.87	30.2	17
ZNF853	3	-0.591	-1.19	2.8
CC2D1A	1	-0.572	-1.06	2.84
CC2D1A	2	0.604	7.22	6.19
CC2D1A	3	-0.641	-1.55	3.62
LOC440982	1	1.34	12.4	8.41
LOC440982	2	1.3	12.1	8
LOC440982	3	-0.307	0.81	3.39
EEF1DP3	1	-0.611	-1.33	3.57
EEF1DP3	2	0.52	6.62	5.46
EEF1DP3	3	-0.323	0.698	3.43
ERBB4	1	-0.866	-3.12	4.58
ERBB4	2	-1.4	-6.89	3.09
ERBB4	3	0.4	5.78	6.06
MBD3L1	1	0.56	6.91	7.02
MBD3L1	2	0.645	7.51	5.35
MBD3L1	3	-0.341	0.571	3.11
OR2U1P	1	4.52	34.8	17
OR2U1P	2	0.306	5.12	5.36
OR2U1P	3	-0.623	-1.42	2.64
